PubChem BioAssay AID504834 (National Center for Advancing Translational Sciences (NCATS), 2011)
The whole screen tested about 320,000 compounds, of which about 22,000 (6.9%) were called active. This list was built around the results that the source calls inconclusive (neither active nor inactive); the mix of calls is not that of the screen. Calls come from the whole dose curve; as a rule, active = well fitted inhibition curve with a large enough effect; inconclusive = small, poorly fitted or top-dose-only effect, or another doubt; inactive = no such curve, though single readings can be large or run the other way. Potencies of inconclusive entries are doubtful fits and often do not repeat.

assay: Primary qHTS for delayed death inhibitors of the malarial parasite plastid, 96 hour incubation; details: P. falciparum luciferase reporter growth; series mostly up to 28.7 µM
How it was run: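 Readout is luminescence from an integrated firefly luciferase in P. falciparum. Red cells, 2% hematocrit and 0.05% parasitemia final, were cultured with compound through two parasite generations (96 hours) at 37 C, 5% CO2.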
Potency is the fitted concentration of half-maximal effect.

Compound	Potency
COc1ccccc1Nc1nc(C)nc2c1oc1ccccc12	inconclusive: 18.5 µM [inhibitor, single point]
CCCC(=O)N(CCN1CCOCC1)c1nc2c(OC)ccc(OC)c2s1	inactive
CC(=O)C12CCCCC1CC1C3CC(C)C4(O)CC(=O)CCC4(C)C3CCC12C (centres undefined)	active: 9.28 µM
COc1cc(C(=O)Nc2ccc(N(C)C)cc2)cc(OC)c1OC	inactive
Cc1cccc(NC(=O)CCCCCN2C(=O)[C@@H]3Cc4ccccc4CN3C2=O)c1	inconclusive: 18.5 µM [inhibitor, single point]
CC1(C)Cc2noc(N)c2C(C)(C)N1OC(=O)c1ccccc1	inconclusive: 18.5 µM [inhibitor, single point]
COc1ccccc1N(Cc1ccccc1)S(=O)(=O)c1cccc(C(=O)Nc2ccc(C(C)=O)cc2)c1	active: 3.7 µM
CC(C)OC(=O)c1c2nc3ccccc3nc2n2c1[nH]c(=O)c1ccccc12	active: 6.57 µM
O=C1COc2ccc(C(=O)COC(=O)/C=C/c3ccco3)cc2N1	inconclusive: 16.5 µM [inhibitor, single point]
COc1ccccc1-c1noc(CCC(=O)Nc2cccc(C)c2)n1	inactive
N#Cc1c(-c2ccccc2F)cc(C2CC2)nc1SCC(=O)c1cccs1	inconclusive: 18.5 µM [inhibitor, single point]
COc1ccc(Nc2ccccc2N)cc1	inconclusive: 14.7 µM [inhibitor, single point]
O=C(NCC1CCN(Cc2ccc(F)cc2)CC1)Nc1cc(F)ccc1F	inactive
CCOC(=O)c1ccccc1NC(=O)CSC(C)C(=O)Nc1cc(C)on1 (centres undefined)	inactive
COc1ccc(CCN2C(=O)c3cccc4c(C(=O)N5CCCCC5)ccc(c34)C2=O)cc1OC	active: 8.28 µM
CC1CCCCN1C(=O)C(Cc1ccccc1)N1C(=O)C2CCCCC2C1=O (centres undefined)	active: 13.1 µM
Cc1nnc(SCc2nnc(-c3cccs3)o2)n1C1CCCCC1	inconclusive: 11.7 µM [inhibitor, single point]
COC(=O)C1=C(c2ccc(F)cc2OCc2ccccc2)C[C@@H]2CC[C@H]1N2C(=O)N1CCCC1	inconclusive: 2.33 µM [inhibitor, full curve]
O=C(CN1CCN(C(=O)CNC(=O)c2ccc3c(c2)OCO3)CC1)Nc1cccc(F)c1	inactive
COc1ccccc1NC(=O)C(CC(C)C)NC(=O)C1CCCCC1 (centres undefined)	active: 8.28 µM
COc1ccc(Br)cc1C(=O)Nc1cc(C)cc(C)c1	inconclusive: 2.94 µM [inhibitor, full curve, poor fit]
Cc1ccc(C)c(N2CCN(C(=O)c3cc4ccccc4oc3=O)CC2)c1	active: 9.28 µM

Ten entries out of the list, sorted by number of heavy atoms, largest number first.
Compound	Potency
COc1ccc(CCN2C(=O)c3cccc4c(C(=O)N5CCCCC5)ccc(c34)C2=O)cc1OC	active: 8.28 µM
COC(=O)C1=C(c2ccc(F)cc2OCc2ccccc2)C[C@@H]2CC[C@H]1N2C(=O)N1CCCC1	inconclusive: 2.33 µM [inhibitor, full curve]
O=C(CN1CCN(C(=O)CNC(=O)c2ccc3c(c2)OCO3)CC1)Nc1cccc(F)c1	inactive
Cc1cccc(NC(=O)CCCCCN2C(=O)[C@@H]3Cc4ccccc4CN3C2=O)c1	inconclusive: 18.5 µM [inhibitor, single point]
CC(=O)C12CCCCC1CC1C3CC(C)C4(O)CC(=O)CCC4(C)C3CCC12C (centres undefined)	active: 9.28 µM
CC(C)OC(=O)c1c2nc3ccccc3nc2n2c1[nH]c(=O)c1ccccc12	active: 6.57 µM
O=C(NCC1CCN(Cc2ccc(F)cc2)CC1)Nc1cc(F)ccc1F	inactive
Cc1nnc(SCc2nnc(-c3cccs3)o2)n1C1CCCCC1	inconclusive: 11.7 µM [inhibitor, single point]
CC1(C)Cc2noc(N)c2C(C)(C)N1OC(=O)c1ccccc1	inconclusive: 18.5 µM [inhibitor, single point]
COc1ccc(Br)cc1C(=O)Nc1cc(C)cc(C)c1	inconclusive: 2.94 µM [inhibitor, full curve, poor fit]

Continued.

Compound	Potency
CCOc1cc(CNCCc2c[nH]c3ccccc23)cc(Cl)c1OCC(N)=O	active: 4.65 µM
O=C(O)CCCNS(=O)(=O)c1cccc2nsnc12	inconclusive: 18.5 µM [inhibitor, single point]
Cc1cccc(/C=C2/SC(=O)N(Cc3ccccc3Cl)C2=O)n1	inconclusive: 16.5 µM [inhibitor, single point]
CCCOc1c(Br)cc(/C=N/O)cc1OC	inactive
COc1cc(C(=O)Nc2ccc(-n3cnnn3)c(C)c2)cc(OC)c1OC	inconclusive: 2.94 µM [inhibitor, full curve, poor fit]
CN1CCN(c2ccc(NC(=O)c3ccc4c(c3)[nH]c(=O)n4Cc3ccc(F)cc3)cc2)CC1	inconclusive: 11.7 µM [inhibitor, single point]
Nc1ccccc1-c1nnn(CC(=O)Nc2ccc3c(c2)OCCO3)n1	inactive
CCc1ccc(C(=O)NNc2ccc(S(N)(=O)=O)cc2)cc1	inactive
O=C(CN1CCCN(Cc2ccc(F)cc2Cl)C1=O)NC1CCCCCCC1	inconclusive: 0.828 µM [inhibitor, partial curve, poor fit]
C=CCN(C(=O)CNC(=O)c1ccco1)C(C(=O)NC1CCCCC1)c1ccc(OC)cc1 (centres undefined)	inconclusive: 18.5 µM [inhibitor, single point]
O=C(c1ccccc1)N1CCN(S(=O)(=O)N2CCCCCC2)CC1	inconclusive: 14.7 µM [inhibitor, partial curve, poor fit]
COc1cc(/C=C(\C#N)C(=O)Nc2ccccc2)ccc1OCCN1CCOCC1	inconclusive: 18.5 µM [inhibitor, single point]
CCN(CC)CCCNc1cc2n(c(=O)n1)CCc1cc(OC)c(OC)cc1-2	inconclusive: 13.1 µM [inhibitor, single point]
O=Cc1ccccc1OS(=O)(=O)c1ccccc1	inactive
CN(C)S(=O)(=O)c1cc(NC(=O)CN2CCCc3ccccc32)ccc1Cl	inconclusive: 2.08 µM [inhibitor, partial curve, poor fit]
COCCCn1c(SCc2ccc(OC)cc2)nc2cc(OC)c(OC)cc2c1=N	inconclusive: 7.38 µM [inhibitor, single point]
COc1ccc(NC(=O)CSc2nc3scc(C)c3c(=O)[nH]2)cc1	inconclusive: 1.65 µM [inhibitor, full curve, poor fit]
Cc1cccc(-n2c(CNC(=O)c3ccc(S(=O)(=O)N(C)C)cc3)nnc2SCC(=O)Nc2ccc(F)cc2)c1	inconclusive: 5.22 µM [inhibitor, partial curve, poor fit]
O=C(NCc1ccc(Cl)cc1Cl)C1CCN(S(=O)(=O)c2ccc3c(c2)OCCCO3)CC1	inconclusive: 3.7 µM [inhibitor, full curve, poor fit]
COc1ccccc1C(=O)N1CCC(N2CCN(c3ccccc3)CC2)CC1	inconclusive: 0.928 µM [inhibitor, full curve, poor fit]
COC(=O)C1=C(c2ccc(OC(F)(F)F)cc2)C[C@@H]2CC[C@H]1N2C(=O)NCC1CC1	inconclusive: 16.5 µM [inhibitor, single point]
COc1ccc([C@@H]2[C@@H]3C(=O)N(C(C)(C)C)C(=O)[C@@H]3[C@]3(CC(C)C)C(=O)N(c4cccc(Br)c4)C(=O)N23)cc1	active: 3.7 µM
